{"sequences": {"note": "Protein sequences, listed by entry. Tags and fused reporters are not part of them. Lines headed by an entry give the natural chain unless they say otherwise; changes in a name come on top.", "UniProt Q9C0K1": "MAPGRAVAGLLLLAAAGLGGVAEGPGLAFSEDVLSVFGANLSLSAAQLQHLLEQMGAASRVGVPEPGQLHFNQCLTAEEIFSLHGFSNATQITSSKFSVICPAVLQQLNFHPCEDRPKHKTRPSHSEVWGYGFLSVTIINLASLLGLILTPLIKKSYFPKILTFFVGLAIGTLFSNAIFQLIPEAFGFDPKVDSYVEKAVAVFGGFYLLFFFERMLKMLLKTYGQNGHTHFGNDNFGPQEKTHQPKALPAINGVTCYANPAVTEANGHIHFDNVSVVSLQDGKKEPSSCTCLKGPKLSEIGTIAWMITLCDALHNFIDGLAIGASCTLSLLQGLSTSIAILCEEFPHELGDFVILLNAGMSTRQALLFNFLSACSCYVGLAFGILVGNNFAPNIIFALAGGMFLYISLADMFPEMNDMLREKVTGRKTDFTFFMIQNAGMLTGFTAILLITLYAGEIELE", "UniProt Q13485": "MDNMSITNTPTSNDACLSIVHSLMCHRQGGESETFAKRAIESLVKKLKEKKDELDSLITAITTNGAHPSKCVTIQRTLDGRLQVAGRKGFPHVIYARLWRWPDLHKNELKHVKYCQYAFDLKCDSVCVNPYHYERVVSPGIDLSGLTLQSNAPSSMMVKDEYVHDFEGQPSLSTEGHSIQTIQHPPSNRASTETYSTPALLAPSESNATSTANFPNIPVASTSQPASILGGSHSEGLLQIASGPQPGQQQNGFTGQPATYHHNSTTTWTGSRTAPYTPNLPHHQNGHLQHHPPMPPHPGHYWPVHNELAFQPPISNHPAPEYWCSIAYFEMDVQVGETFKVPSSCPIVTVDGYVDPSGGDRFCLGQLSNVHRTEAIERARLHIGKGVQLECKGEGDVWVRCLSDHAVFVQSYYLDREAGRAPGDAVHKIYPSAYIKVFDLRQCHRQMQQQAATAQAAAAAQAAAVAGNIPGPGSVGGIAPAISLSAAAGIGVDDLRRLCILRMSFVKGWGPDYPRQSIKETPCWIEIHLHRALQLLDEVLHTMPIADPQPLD", "UniProt Q14683": "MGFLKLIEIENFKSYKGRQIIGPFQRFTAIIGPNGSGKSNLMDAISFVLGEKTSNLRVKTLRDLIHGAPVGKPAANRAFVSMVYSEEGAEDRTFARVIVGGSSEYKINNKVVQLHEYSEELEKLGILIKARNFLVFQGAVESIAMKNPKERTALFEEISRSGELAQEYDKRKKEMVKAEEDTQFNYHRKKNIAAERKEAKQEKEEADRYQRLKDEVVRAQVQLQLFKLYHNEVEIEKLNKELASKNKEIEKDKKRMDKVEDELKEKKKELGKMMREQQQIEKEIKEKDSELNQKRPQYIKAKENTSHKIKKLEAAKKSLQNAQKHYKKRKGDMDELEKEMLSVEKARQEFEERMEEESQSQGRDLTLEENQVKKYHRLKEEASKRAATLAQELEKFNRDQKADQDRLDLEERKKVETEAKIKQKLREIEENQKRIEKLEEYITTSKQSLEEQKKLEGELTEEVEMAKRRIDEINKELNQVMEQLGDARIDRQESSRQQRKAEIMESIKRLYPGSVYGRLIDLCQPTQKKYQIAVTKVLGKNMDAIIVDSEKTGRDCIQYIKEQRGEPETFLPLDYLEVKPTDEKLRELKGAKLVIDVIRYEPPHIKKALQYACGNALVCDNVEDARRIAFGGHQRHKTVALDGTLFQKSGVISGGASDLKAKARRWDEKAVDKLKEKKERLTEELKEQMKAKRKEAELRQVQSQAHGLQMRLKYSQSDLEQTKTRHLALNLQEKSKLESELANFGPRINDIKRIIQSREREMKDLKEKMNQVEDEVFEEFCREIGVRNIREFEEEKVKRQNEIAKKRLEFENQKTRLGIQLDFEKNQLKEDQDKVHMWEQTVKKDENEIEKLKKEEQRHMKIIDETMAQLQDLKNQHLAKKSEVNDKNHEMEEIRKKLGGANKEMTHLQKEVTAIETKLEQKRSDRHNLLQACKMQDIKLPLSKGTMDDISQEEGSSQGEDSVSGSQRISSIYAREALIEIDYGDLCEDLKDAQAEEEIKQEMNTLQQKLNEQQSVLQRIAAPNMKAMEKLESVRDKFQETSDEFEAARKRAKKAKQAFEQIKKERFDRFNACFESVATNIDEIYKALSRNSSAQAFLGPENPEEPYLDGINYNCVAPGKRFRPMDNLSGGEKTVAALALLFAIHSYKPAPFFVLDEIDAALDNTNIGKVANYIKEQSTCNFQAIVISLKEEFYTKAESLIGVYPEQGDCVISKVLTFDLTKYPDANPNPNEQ", "UniProt O75643, whole entry, looked up": "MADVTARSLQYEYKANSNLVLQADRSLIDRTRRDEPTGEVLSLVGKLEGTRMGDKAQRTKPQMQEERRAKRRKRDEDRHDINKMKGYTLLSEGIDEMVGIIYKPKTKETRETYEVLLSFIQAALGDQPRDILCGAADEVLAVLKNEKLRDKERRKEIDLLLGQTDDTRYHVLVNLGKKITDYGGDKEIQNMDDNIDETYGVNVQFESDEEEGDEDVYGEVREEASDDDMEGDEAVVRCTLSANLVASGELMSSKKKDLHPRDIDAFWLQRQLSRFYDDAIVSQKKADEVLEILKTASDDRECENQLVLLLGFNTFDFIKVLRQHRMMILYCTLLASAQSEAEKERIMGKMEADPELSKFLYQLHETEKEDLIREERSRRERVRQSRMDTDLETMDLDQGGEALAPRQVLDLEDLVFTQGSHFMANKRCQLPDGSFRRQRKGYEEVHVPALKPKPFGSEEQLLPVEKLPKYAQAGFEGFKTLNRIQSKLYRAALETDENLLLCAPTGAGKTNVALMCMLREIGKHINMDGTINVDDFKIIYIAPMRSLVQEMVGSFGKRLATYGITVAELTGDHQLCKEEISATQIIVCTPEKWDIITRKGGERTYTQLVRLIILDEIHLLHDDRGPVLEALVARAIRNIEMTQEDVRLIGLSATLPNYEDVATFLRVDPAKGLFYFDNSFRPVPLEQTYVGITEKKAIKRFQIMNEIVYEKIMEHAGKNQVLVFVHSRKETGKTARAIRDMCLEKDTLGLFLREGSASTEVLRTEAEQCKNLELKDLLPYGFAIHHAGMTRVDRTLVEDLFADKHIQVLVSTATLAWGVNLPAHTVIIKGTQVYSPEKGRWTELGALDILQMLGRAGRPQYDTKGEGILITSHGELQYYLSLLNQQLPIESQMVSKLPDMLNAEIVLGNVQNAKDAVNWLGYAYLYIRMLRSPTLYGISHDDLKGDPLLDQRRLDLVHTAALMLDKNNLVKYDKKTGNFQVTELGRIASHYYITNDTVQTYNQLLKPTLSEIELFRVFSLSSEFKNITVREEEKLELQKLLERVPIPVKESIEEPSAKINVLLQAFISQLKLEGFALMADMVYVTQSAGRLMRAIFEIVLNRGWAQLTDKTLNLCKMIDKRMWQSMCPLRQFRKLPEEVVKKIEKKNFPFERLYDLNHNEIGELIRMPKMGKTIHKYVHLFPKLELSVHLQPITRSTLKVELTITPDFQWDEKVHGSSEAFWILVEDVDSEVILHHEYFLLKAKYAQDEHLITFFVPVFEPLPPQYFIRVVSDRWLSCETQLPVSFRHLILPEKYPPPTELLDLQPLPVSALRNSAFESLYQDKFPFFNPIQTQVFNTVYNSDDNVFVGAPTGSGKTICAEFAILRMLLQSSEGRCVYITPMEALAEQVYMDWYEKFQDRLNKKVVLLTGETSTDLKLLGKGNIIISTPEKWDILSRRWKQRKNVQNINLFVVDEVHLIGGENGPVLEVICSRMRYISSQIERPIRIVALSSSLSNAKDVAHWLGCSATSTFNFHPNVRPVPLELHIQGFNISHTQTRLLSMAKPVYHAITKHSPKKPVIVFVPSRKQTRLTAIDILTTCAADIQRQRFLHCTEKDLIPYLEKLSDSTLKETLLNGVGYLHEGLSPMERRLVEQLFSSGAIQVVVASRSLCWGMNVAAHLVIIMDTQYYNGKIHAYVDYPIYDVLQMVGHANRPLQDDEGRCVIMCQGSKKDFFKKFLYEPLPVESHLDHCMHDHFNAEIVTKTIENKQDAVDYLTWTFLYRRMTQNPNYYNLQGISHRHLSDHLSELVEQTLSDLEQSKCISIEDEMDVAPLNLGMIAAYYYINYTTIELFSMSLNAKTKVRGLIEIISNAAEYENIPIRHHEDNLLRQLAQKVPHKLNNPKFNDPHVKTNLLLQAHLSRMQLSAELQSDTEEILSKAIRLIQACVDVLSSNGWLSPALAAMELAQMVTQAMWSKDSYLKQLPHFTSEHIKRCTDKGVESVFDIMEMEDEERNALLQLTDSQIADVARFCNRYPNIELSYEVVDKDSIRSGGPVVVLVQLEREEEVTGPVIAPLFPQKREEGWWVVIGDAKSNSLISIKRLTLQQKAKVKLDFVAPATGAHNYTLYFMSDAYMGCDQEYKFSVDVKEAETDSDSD", "UniProt P09234, whole entry, looked up": "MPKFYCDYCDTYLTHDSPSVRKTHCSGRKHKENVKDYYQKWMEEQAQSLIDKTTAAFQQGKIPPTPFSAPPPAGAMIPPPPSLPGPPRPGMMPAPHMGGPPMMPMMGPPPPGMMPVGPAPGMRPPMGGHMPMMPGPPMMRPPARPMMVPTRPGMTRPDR", "UniProt Q9UPR3": "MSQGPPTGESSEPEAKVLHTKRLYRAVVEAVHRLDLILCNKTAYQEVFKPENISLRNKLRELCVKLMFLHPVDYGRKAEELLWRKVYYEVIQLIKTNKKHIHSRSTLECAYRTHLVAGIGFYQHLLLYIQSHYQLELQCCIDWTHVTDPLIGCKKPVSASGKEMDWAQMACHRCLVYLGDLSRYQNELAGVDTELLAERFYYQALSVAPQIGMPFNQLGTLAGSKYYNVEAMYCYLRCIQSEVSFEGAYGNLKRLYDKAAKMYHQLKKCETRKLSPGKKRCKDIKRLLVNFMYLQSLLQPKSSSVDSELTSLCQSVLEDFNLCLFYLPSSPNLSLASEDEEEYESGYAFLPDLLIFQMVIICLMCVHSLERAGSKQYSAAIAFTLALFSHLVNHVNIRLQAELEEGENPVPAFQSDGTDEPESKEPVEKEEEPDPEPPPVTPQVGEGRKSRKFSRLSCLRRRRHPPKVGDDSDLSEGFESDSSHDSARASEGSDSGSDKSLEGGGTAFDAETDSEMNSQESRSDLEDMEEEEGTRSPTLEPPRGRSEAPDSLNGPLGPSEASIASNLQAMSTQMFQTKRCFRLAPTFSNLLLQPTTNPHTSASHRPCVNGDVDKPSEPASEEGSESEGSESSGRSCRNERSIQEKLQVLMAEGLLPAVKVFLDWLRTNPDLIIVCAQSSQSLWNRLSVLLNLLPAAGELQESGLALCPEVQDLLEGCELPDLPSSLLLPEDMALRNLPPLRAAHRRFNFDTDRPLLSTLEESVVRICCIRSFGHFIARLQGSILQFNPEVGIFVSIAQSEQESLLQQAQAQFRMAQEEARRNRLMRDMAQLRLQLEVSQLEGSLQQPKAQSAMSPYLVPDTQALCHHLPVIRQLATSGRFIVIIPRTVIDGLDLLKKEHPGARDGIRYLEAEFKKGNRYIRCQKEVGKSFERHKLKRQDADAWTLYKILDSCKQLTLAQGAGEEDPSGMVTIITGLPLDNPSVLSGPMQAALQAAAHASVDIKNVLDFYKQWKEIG", "UniProt O15431": "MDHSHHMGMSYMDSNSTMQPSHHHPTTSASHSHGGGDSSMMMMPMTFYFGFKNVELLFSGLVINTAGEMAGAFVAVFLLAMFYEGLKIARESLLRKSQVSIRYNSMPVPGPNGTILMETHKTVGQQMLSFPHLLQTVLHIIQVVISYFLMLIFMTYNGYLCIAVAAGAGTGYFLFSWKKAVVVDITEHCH", "UniProt Q9H7B4": "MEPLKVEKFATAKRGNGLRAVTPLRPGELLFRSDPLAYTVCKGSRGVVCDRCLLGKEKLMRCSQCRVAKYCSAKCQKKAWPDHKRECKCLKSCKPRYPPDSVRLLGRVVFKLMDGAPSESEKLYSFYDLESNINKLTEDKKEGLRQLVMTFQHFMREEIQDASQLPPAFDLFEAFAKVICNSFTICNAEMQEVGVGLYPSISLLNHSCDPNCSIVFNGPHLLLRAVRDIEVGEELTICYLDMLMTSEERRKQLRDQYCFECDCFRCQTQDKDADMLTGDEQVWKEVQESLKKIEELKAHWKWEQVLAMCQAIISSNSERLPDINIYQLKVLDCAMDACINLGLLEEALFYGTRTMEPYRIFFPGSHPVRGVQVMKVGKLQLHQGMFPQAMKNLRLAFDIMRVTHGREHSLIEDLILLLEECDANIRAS", "UniProt Q6GMV2": "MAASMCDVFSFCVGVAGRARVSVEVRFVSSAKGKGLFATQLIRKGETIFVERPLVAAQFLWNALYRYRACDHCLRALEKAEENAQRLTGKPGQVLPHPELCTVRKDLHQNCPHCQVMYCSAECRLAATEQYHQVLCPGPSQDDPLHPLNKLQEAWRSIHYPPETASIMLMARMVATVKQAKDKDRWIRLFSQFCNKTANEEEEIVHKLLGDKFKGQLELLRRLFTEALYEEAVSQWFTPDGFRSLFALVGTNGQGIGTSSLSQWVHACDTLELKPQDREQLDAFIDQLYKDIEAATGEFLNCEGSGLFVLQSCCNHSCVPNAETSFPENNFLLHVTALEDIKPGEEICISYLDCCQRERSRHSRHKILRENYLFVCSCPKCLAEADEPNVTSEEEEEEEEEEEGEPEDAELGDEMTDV"}, "source": "the supplement of paper PMC12067093", "about": "“Discovery and optimisation of a covalent ligand for TRIM25 and its application to targeted protein ubiquitination” (Chemical Science, 2025)", "note": "This is one part of the list.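 Also: competitive profiling in live THP-1 cells: cysteine peptides tagged with an iodoacetamide desthiobiotin (IA-DTB) probe, intensity after compound treatment relative to DMSO-treated cells.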"}
{"compound": "Cc1cc(ccc1-c1ccccc1)C(=O)N1CCCN(CC1)C(=O)CCl [compound 10]", "assay": "probe-labelled cysteine peptide fold change vs DMSO (competition) (log2 fold change); higher = less target engagement (more negative = stronger competition)", "conditions": "10 µM; THP-1; incubation time: 4 h"}
{"target": "SMC4_Q9NTJ3_260_GQTEHDEGMLEYLEDIIGCGR (UniProt Q9NTJ3)", "probe-labelled cysteine peptide fold change": 0.0057}
{"target": "SLC39A8_Q9C0K1_101_FSVICPAVLQQLNFHPCEDRPK (UniProt Q9C0K1)", "probe-labelled cysteine peptide fold change": 0.00167}
{"target": "SMARCA2_P51531_968_CDMSALQK (UniProt P51531)", "probe-labelled cysteine peptide fold change": 0.144}
{"target": "SMARCA2_P51531_1016_ICNHPYMFQHIEESFAEHLGYSNGVINGAELYR (UniProt P51531)", "probe-labelled cysteine peptide fold change": 0.0118}
{"target": "SMG1_Q96Q15_1715_QLISSCPWLSELDESATEGVIK (UniProt Q96Q15)", "probe-labelled cysteine peptide fold change": -0.0563}
{"target": "SMAD4_Q13485_127_CDSVCVNPYHYER (UniProt Q13485)", "probe-labelled cysteine peptide fold change": 0.122}
{"target": "SLFN11_Q7Z7L1_51_AACALLNSGGGVIR (UniProt Q7Z7L1)", "probe-labelled cysteine peptide fold change": 0.00429}
{"target": "SMC1A_Q14683_781_MNQVEDEVFEEFCR (UniProt Q14683)", "probe-labelled cysteine peptide fold change": 0.0419}
{"target": "SNRNP200_O75643_1115_TLNLCK (UniProt O75643)", "probe-labelled cysteine peptide fold change": 0.0532}
{"target": "SNRNP200_O75643_1702+1706_CVIMCQGSK (UniProt O75643)", "probe-labelled cysteine peptide fold change": -0.122}
{"target": "SNRNP200_O75643_2011_FCNRYPNIELSYEVVDK (UniProt O75643)", "probe-labelled cysteine peptide fold change": 0.153}
{"target": "SNRNP200_O75643_769_TEAEQCK (UniProt O75643)", "probe-labelled cysteine peptide fold change": -0.0819}
{"target": "SNRPC_P09234_6_FYCDYCDTYLTHDSPSVR (UniProt P09234)", "probe-labelled cysteine peptide fold change": 0.194}
{"target": "SLC39A10_Q9ULF5_598_NYLCIEEEK (UniProt Q9ULF5)", "probe-labelled cysteine peptide fold change": -0.213}
{"target": "SNRPC_P09234_25_KTHCSGR (UniProt P09234)", "probe-labelled cysteine peptide fold change": 0.0214}
{"target": "SNAPC3_Q92966_92_DLDCSLEAAAELR (UniProt Q92966)", "probe-labelled cysteine peptide fold change": 0.0062}
{"target": "SMAD4_Q13485_115_YCQYAFDLK (UniProt Q13485)", "probe-labelled cysteine peptide fold change": 0.0205}
{"target": "SND1_Q7KZF4_268_DVQIILESCHNQNILGTILHPNGNITELLLK (UniProt Q7KZF4)", "probe-labelled cysteine peptide fold change": 0.0651}
{"target": "SMG5_Q9UPR3_39_LDLILCNK (UniProt Q9UPR3)", "probe-labelled cysteine peptide fold change": 0.114}
{"target": "SLC31A1_O15431_189_AVVVDITEHCH (UniProt O15431)", "probe-labelled cysteine peptide fold change": -0.109}
{"target": "SMYD3_Q9H7B4_263_QLRDQYCFECDCFR (UniProt Q9H7B4)", "probe-labelled cysteine peptide fold change": -0.168}
{"target": "SMPD1_P17405_229_ILFLTDLHWDHDYLEGTDPDCADPLCCR (UniProt P17405)", "probe-labelled cysteine peptide fold change": -0.591}
{"target": "SNRNP200_O75643_1702_CVIMCQGSKK (UniProt O75643)", "probe-labelled cysteine peptide fold change": -0.0876}
{"target": "SLFN13_Q68D06_286_LPIVHFCSSKPR (UniProt Q68D06)", "probe-labelled cysteine peptide fold change": 0.0763}
{"target": "SNRNP200_O75643_502_AALETDENLLLCAPTGAGK (UniProt O75643)", "probe-labelled cysteine peptide fold change": 0.0328}
{"target": "SNRNP200_O75643_1706_CVIMCQGSK (UniProt O75643)", "probe-labelled cysteine peptide fold change": 0.0611}
{"target": "SMYD5_Q6GMV2_101_LTGKPGQVLPHPELCTVRK (UniProt Q6GMV2)", "probe-labelled cysteine peptide fold change": -0.143}
{"target": "SMC1A_Q14683_619_ALQYACGNALVCDNVEDAR (UniProt Q14683)", "probe-labelled cysteine peptide fold change": 0.262}
{"target": "SLC44A1_Q8WWI5_98_YVFFLDPCNLDLINRK (UniProt Q8WWI5)", "probe-labelled cysteine peptide fold change": -0.00663}
{"target": "SMARCB1_Q12824_167_TFPLCFDDHDPAVIHENASQPEVLVPIRLDMEIDGQKLR (UniProt Q12824)", "probe-labelled cysteine peptide fold change": -0.136}
{"target": "SNRNP200_O75643_742_DMCLEK (UniProt O75643)", "probe-labelled cysteine peptide fold change": 0.0519}
{"target": "SMYD5_Q6GMV2_101_LTGKPGQVLPHPELCTVR (UniProt Q6GMV2)", "probe-labelled cysteine peptide fold change": -0.0572}
{"target": "SNAPC1_Q16533_11_GTPPGLQTDCEALLSR (UniProt Q16533)", "probe-labelled cysteine peptide fold change": 0.651}
{"target": "SMC1A_Q14683_1073_FDRFNACFESVATNIDEIYK (UniProt Q14683)", "probe-labelled cysteine peptide fold change": 0.178}
{"target": "SMARCA2_P51531_399_QLRQEVVACMR (UniProt P51531)", "probe-labelled cysteine peptide fold change": -0.0153}
{"target": "SMARCA4_P51532_998_CDMSALQR (UniProt P51532)", "probe-labelled cysteine peptide fold change": 0.126}
{"target": "SMG7_Q92540_537_NLSNNCDTGEK (UniProt Q92540)", "probe-labelled cysteine peptide fold change": -0.339}
{"target": "SLC3A2_P08195_431_WCSWSLSQAR (UniProt P08195)", "probe-labelled cysteine peptide fold change": -0.11}
{"target": "SNRPB_P14678_45_HMNLILCDCDEFRK (UniProt P14678)", "probe-labelled cysteine peptide fold change": 0.00747}
